Legend:
[1] = Taste assessment, 200 mm anchored visual analog scale (Example 2); set-up: species or system human; conditions: 200 mg sample, 200 mm VAS; for Taste, Max / Taste, Mean / Taste, Median / Taste, Min: N=10 subjects; for Taste assessment: one subject, very bad (low) to very good (high)
[2] = Smell assessment, 200 mm anchored visual analog scale (Example 2); set-up: species or system human; conditions: 200 mg sample, 200 mm VAS; for Smell, Max / Smell, Mean / Smell, Median / Smell, Min: N=10 subjects; for Smell assessment: one subject, very bad (low) to very good (high)

Row | SMILES | Taste, Max [1] | Taste, Mean [1] | Taste, Median [1] | Taste, Min [1] | Taste assessment ([1]; entry 1) | Taste assessment ([1]; entry 2) | Taste assessment ([1]; entry 3) | Taste assessment ([1]; entry 4) | Taste assessment ([1]; entry 5) | Taste assessment ([1]; entry 6) | Taste assessment ([1]; entry 7) | Taste assessment ([1]; entry 8) | Taste assessment ([1]; entry 9) | Taste assessment ([1]; entry 10) | Smell, Max [2] | Smell, Mean [2] | Smell, Median [2] | Smell, Min [2] | Smell assessment ([2]; entry 1) | Smell assessment ([2]; entry 2) | other results
1 | CCCC(=O)[O-].[Na+] [Sodium Butyrate, Sodium butyrate] | 6 | 3.50 | 4.00 | 0 | 3 | 4 | 6 | 4 | 0 | 0 | 5 | 3 | 4 | 6 | 44 | 17.40 | 13.00 | 3 | 14 | 12 | Smell assessment ([2]; entry 3): 6; Smell assessment ([2]; entry 4): 21; Smell assessment ([2]; entry 5): 27; Smell assessment ([2]; entry 6): 4; Smell assessment ([2]; entry 7): 38; Smell assessment ([2]; entry 8): 44; Smell assessment ([2]; entry 9): 5; Smell assessment ([2]; entry 10): 3
2 | CCCC(=O)OCC(COC(=O)CCC)OC(=O)CCC [Tributyrin, propane-1,2,3-triyl tributanoate] | 5 | 3.30 | 3.00 | 2 | 5 | 3 | 3 | 4 | 4 | 3 | 2 | 3 | 3 | 3 | 5 | 3.00 | 3.00 | 2 | 3 | 3 | Smell assessment ([2]; entry 3): 2; Smell assessment ([2]; entry 4): 3; Smell assessment ([2]; entry 5): 3; Smell assessment ([2]; entry 6): 3; Smell assessment ([2]; entry 7): 4; Smell assessment ([2]; entry 8): 5; Smell assessment ([2]; entry 9): 2; Smell assessment ([2]; entry 10): 2
3 | CCCC(=O)O [Butyric Acid, butanoic acid] | 2 | 0.70 | 0.50 | 0 | 2 | 1 | 1 | 0 | 0 | 0 | 2 | 1 | 0 | 0 | 3 | 0.80 | 0.00 | 0 | 1 | 2 | Smell assessment ([2]; entry 3): 0; Smell assessment ([2]; entry 4): 0; Smell assessment ([2]; entry 5): 0; Smell assessment ([2]; entry 6): 0; Smell assessment ([2]; entry 7): 3; Smell assessment ([2]; entry 8): 2; Smell assessment ([2]; entry 9): 0; Smell assessment ([2]; entry 10): 0
4 | CCCC(=O)O [L-Lysine Butyrate, L-lysine butyrate] | 108 | 101.50 | 101.00 | 93 | 100 | 102 | 103 | 100 | 107 | 102 | 100 | 93 | 100 | 108 | 115 | 105.10 | 102.5 | 98 | 115 | 109 | Smell assessment ([2]; entry 3): 98; Smell assessment ([2]; entry 4): 100; Smell assessment ([2]; entry 5): 114; Smell assessment ([2]; entry 6): 100; Smell assessment ([2]; entry 7): 102; Smell assessment ([2]; entry 8): 103; Smell assessment ([2]; entry 9): 101; Smell assessment ([2]; entry 10): 109

From patent EP4643657A1, “COMPOSITIONS CONTAINING SHORT-CHAIN FATTY ACID, METHODS OF USE, AND METHODS OF MAKING THEREOF” (Velocity Life Sciences, LLC, priority 2024, dated 2025)
